Assay results from paper PMC5963871.
These are yes or no findings as the source states them, for the method shown. In cells and extracts the contact can be indirect. These calls come from enrichment with a bait or labelling near it, and not all partners need be listed.

Protein sequences, listed by entry. Tags and fused reporters are not part of them.
UniProt Q9VW15: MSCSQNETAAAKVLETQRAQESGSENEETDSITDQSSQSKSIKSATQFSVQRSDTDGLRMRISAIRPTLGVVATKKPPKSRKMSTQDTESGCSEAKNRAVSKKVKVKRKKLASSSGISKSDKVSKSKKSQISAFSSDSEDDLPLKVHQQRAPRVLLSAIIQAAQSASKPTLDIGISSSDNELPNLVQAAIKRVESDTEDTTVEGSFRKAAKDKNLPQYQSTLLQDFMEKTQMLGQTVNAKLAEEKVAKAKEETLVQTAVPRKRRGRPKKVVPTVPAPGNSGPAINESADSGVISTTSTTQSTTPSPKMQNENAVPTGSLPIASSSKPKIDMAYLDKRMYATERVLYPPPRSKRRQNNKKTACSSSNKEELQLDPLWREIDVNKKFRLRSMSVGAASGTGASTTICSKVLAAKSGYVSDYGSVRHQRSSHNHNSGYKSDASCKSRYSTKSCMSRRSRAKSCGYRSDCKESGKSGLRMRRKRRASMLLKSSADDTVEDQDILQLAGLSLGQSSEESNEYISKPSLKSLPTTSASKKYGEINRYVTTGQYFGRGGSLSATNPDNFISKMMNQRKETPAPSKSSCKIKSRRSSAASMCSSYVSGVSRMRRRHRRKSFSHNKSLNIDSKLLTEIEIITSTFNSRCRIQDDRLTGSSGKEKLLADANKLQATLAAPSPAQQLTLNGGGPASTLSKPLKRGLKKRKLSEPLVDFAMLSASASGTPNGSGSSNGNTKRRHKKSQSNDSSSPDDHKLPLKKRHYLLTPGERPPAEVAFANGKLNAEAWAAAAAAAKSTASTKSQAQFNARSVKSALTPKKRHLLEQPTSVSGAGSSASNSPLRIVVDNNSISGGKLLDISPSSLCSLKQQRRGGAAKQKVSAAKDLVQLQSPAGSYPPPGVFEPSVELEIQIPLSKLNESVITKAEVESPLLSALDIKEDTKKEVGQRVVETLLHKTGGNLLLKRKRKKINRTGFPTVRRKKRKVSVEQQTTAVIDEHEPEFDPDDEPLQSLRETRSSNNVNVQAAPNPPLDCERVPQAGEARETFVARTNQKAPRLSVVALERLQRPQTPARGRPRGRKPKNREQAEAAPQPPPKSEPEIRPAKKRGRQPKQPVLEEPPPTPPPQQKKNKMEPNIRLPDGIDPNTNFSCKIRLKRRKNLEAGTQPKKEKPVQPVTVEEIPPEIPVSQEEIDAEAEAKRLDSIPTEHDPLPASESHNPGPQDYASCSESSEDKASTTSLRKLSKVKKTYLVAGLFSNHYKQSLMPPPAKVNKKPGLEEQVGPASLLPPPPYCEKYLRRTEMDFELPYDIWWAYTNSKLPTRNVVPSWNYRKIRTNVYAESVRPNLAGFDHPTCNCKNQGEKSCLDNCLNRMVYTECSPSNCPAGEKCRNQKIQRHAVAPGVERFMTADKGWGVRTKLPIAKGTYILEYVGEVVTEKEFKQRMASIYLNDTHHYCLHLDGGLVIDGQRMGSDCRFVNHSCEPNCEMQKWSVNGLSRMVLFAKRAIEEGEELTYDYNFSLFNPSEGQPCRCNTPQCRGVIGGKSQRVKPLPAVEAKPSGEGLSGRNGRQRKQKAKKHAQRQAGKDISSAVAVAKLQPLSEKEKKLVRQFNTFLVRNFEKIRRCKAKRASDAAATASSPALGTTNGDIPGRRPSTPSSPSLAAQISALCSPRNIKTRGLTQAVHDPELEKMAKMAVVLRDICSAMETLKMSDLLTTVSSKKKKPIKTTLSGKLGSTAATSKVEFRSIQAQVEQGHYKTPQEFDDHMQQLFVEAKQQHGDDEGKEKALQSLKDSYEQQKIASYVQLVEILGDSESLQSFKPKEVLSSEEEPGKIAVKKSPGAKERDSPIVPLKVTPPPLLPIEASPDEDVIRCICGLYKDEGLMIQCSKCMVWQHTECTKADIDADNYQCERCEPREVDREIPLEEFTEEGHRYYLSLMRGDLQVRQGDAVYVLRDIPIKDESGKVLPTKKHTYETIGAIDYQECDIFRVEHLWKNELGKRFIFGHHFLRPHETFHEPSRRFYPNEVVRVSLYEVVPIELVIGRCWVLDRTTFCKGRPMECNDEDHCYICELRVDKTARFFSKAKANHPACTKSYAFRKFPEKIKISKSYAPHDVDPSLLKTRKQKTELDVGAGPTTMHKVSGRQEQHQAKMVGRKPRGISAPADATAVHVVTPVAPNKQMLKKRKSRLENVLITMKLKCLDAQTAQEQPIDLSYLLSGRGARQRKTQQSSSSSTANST
UniProt Q24572: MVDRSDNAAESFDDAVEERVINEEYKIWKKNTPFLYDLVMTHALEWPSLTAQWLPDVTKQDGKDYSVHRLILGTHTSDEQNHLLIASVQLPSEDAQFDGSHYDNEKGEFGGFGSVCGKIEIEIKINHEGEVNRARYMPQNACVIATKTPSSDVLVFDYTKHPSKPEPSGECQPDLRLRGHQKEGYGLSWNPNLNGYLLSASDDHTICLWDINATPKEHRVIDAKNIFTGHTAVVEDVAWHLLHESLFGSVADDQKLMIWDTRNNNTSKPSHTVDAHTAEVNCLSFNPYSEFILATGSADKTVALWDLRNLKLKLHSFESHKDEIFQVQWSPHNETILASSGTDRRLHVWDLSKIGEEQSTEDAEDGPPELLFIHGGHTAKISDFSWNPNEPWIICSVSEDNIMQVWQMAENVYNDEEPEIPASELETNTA

Assays:
[1] = target: Ash1-CTAP (Drosophila) (UniProt Q9VW15); experiment: affinity purification with mass spectrometry; tandem affinity purification (TAP) of NTAP-Ash1 or Ash1-CTAP from Drosophila embryonic nuclear extracts; eluates from calmodulin beads separated on 4-12% gels; iBAQ quantification against mock TAP from wild type
[2] = target: NTAP-Ash1 (Drosophila) (UniProt Q9VW15); experiment: as above

- binding [1]: binds
- binding [2]: binds
Substance: Caf1-55 (endogenous, Drosophila embryos) (from UniProt Q24572 1-430)
